Laboratory results: patent publication US20190184007A1 (priority 2013, published 2019)
Some of these results come from one statement about several compounds together.

Target: T1, DQA1*0102:DQB1*0602 (Homo sapiens, UniProt P01909+P01920, A157G/A45G/C70R/E118A/E183D/E77G/F83G/G63E/H151Q/H199R/H252R/H253Q/I129T/I235V/I88M/INS77G/K197Q/L117V/L119F/L178F/L71W/L74F/L85Q/L91A/L98M/N214S/P87R/Q116E/Q76K/R102G/R240Q/R75S/R78G/S102Y/S185I/S41F/S97I/T121G/T122I/T172A/T86R/V229M/V68A/V73E/Y34C/Y41F/Y58L)
T1 construct: purchased ProImmune (REVEAL technology)
Format: binding

Sequence	strong binders for the DQB1*0602 HLA haplotype
LILYDKEERRRRWRQ [compound 9]	> 15 % of the positive control signal
MNLPSIKVSWAAVTL [compound 11]	> 15 % of the positive control signal
RELILYDKEEIRRIWRQANNG [Peptide #1]	> 15 % of the positive control signal
VGKMIGGIGRFYIQM [compound 5]	> 15 % of the positive control signal
